Values quoted from earlier work in patent publication US11806326B2, “Methods for dopamine modulation in human neurologic diseases” (priority 2018, dated 2023).
Some entries share one result that the patent states for a list of compounds.

The chains behind the UniProt entries cited, without tags or fusion partners. Where a name states a change or a piece, a line headed by the entry shows the natural chain unless it says otherwise.
UniProt P35270: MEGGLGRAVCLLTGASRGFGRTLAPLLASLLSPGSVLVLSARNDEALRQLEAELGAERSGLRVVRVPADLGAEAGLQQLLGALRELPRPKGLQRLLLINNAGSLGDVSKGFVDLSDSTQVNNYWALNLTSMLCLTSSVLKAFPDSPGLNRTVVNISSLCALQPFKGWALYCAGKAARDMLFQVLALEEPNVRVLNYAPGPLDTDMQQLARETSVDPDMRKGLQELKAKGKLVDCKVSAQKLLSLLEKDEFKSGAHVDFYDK

Molecular target: sepiapterin reductase (Homo sapiens, UniProt P35270)
Conditions: cited from earlier work

| SMILES | IC50 [nM] |
| --- | --- |
| Cc1cc(C)nc(NS(=O)(=O)c2ccc(N)cc2)n1 [sulfamethazine] | < 100 |
| Nc1ccc(S(=O)(=O)Nc2ccccn2)cc1 [sulfapyridine] | < 100 |
| Nc1ccc(S(=O)(=O)Nc2nccs2)cc1 [sulfathiazole] | < 100 |
